Test results as given in the supplement of paper PMC12595434, “Development of retinoid nuclear receptor pathway antagonists through targeting aldehyde dehydrogenase 1A3” (iScience, 2025).
The list shows a part of the results. This is a noisy data set.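 Tm was set to 64 °C where no melting was found, and many curves are irregular.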

Protein sequences, listed by entry. Tags and fused reporters are not part of them. Lines headed by an entry give the natural chain unless they say otherwise; changes in a name come on top.
UniProt Q96RL7: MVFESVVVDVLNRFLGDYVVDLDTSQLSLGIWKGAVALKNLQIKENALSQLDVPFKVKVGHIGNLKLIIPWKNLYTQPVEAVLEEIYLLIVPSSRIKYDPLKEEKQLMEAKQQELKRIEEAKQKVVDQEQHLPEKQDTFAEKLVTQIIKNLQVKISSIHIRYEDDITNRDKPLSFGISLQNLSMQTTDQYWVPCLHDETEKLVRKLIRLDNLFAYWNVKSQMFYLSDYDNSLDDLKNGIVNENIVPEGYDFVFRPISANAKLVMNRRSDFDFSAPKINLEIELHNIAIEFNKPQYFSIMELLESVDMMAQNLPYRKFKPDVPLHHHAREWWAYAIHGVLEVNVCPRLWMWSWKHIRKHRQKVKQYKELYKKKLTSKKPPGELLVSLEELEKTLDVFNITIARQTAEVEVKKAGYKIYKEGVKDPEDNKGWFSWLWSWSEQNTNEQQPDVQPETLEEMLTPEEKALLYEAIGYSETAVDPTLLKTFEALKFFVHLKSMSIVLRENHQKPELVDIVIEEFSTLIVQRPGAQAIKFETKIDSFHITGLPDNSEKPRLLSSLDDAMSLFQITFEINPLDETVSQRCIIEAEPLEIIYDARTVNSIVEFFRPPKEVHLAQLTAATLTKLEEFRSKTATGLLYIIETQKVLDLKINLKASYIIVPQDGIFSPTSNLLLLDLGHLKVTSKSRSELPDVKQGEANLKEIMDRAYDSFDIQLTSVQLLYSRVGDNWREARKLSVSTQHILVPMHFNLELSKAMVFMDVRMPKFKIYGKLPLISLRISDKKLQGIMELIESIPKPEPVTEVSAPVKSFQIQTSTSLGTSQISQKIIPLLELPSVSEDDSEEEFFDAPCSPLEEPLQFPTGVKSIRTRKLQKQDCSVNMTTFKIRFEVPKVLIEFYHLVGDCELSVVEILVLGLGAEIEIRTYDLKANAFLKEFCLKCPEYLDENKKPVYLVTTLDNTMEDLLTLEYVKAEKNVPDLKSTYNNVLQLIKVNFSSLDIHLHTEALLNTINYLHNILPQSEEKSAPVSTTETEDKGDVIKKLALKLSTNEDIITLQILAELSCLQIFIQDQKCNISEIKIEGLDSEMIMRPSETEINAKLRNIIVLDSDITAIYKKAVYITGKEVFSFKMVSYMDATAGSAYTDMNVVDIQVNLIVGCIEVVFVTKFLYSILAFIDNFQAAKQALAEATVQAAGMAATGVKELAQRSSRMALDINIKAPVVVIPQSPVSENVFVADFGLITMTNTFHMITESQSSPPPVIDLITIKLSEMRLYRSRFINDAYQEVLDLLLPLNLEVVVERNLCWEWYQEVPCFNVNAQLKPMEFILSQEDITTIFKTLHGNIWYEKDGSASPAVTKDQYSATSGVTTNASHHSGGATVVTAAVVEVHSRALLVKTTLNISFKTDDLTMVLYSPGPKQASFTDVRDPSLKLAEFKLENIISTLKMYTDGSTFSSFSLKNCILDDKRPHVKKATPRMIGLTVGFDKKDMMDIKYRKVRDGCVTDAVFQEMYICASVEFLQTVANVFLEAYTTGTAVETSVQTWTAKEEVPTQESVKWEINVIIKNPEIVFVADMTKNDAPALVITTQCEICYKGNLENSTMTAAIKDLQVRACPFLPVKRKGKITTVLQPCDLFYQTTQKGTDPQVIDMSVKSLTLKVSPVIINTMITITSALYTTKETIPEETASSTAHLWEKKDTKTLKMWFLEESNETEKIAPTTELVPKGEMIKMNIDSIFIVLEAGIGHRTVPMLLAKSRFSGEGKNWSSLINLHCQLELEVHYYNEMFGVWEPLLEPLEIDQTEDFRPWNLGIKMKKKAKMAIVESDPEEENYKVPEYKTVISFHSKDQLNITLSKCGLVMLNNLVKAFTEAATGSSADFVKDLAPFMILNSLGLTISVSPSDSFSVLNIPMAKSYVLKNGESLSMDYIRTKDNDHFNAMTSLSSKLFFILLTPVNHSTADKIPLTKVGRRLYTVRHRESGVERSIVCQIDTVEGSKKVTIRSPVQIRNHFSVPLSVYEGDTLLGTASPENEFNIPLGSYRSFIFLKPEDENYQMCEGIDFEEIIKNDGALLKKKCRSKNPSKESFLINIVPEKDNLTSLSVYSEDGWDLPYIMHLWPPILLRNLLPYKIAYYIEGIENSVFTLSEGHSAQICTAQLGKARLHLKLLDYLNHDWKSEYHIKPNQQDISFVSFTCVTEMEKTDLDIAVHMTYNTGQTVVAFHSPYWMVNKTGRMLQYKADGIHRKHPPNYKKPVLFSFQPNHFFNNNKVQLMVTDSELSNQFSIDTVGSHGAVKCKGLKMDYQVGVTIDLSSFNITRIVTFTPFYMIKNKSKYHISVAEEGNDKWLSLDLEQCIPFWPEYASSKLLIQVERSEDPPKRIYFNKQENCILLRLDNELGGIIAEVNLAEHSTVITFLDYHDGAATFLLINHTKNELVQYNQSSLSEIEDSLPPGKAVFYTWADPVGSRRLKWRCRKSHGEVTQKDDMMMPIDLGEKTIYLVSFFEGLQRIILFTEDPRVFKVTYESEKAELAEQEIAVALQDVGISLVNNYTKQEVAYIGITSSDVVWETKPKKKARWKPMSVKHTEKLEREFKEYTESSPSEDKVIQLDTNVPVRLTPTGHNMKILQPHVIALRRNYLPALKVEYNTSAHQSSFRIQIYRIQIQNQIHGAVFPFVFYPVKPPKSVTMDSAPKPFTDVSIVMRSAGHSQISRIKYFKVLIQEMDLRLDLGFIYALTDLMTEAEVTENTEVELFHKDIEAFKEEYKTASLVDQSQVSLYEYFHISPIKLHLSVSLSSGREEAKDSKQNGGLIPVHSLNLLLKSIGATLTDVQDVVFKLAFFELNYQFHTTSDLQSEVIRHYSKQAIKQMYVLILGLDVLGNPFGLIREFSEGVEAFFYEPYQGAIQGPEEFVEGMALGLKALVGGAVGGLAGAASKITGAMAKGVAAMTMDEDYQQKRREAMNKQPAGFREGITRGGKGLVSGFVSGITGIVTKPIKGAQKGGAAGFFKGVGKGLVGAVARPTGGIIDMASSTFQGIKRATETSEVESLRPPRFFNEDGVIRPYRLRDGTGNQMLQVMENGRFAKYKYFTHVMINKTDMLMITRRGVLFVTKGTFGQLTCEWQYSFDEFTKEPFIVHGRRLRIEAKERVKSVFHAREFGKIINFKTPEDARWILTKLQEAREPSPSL
UniProt Q96K37: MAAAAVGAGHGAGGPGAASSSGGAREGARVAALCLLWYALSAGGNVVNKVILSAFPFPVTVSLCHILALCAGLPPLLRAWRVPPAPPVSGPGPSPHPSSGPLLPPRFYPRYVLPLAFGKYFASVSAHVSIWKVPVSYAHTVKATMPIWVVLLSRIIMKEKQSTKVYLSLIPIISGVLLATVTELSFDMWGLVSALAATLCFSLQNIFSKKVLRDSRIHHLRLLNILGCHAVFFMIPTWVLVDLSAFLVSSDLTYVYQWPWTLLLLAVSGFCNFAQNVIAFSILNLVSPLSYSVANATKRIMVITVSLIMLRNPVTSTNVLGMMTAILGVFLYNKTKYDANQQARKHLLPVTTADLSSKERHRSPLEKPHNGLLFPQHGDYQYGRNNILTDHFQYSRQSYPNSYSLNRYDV
UniProt Q96GD4, whole entry: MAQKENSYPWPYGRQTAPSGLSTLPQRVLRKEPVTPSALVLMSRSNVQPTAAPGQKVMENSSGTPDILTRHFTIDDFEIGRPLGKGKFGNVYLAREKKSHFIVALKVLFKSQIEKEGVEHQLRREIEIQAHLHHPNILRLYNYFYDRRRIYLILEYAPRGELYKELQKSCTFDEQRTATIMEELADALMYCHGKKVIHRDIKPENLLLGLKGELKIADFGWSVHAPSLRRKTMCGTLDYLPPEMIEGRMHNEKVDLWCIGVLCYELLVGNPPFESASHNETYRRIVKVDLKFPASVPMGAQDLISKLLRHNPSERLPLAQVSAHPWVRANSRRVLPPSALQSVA
UniProt Q96MF7: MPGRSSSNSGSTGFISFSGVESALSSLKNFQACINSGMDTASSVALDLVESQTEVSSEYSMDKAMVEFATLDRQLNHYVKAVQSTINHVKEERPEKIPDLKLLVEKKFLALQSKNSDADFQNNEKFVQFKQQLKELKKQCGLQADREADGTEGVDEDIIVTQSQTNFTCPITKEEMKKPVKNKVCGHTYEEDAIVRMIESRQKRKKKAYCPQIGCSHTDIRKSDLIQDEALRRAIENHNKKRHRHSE
UniProt Q96F63: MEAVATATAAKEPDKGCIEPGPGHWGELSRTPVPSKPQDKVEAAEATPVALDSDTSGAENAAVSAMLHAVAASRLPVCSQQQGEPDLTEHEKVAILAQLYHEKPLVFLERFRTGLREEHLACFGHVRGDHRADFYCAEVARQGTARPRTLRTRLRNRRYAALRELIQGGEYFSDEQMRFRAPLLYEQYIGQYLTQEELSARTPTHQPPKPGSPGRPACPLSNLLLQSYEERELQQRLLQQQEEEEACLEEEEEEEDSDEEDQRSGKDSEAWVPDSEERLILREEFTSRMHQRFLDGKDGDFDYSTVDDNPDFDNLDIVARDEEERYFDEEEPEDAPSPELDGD
UniProt Q99439: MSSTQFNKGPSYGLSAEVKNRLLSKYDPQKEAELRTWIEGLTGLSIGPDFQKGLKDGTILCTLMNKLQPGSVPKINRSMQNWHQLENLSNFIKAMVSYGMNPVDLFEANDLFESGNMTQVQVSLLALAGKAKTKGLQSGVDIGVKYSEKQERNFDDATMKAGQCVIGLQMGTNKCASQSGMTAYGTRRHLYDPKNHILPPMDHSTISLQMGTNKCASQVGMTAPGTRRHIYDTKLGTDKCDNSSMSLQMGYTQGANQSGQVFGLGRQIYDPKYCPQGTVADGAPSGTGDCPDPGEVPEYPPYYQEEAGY
UniProt Q96MX6, whole entry: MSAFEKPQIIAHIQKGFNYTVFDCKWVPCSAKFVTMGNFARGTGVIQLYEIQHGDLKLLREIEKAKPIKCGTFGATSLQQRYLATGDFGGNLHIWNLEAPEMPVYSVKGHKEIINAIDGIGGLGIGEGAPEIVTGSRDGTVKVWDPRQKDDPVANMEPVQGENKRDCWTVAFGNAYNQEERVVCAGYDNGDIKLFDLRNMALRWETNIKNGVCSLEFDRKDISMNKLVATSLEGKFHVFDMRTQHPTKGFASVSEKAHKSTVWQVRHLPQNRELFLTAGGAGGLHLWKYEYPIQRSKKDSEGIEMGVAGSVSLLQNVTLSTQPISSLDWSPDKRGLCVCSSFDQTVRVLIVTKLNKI
UniProt Q96GS4: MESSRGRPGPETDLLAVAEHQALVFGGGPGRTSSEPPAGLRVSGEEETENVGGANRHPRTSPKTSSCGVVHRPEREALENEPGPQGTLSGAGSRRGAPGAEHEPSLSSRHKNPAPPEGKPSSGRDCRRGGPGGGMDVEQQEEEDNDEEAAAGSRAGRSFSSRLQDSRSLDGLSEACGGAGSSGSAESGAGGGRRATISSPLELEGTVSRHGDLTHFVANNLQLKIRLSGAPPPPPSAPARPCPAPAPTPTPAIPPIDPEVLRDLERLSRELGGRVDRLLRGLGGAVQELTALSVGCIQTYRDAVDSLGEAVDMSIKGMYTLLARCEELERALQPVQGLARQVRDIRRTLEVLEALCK
UniProt Q96PZ2, whole entry: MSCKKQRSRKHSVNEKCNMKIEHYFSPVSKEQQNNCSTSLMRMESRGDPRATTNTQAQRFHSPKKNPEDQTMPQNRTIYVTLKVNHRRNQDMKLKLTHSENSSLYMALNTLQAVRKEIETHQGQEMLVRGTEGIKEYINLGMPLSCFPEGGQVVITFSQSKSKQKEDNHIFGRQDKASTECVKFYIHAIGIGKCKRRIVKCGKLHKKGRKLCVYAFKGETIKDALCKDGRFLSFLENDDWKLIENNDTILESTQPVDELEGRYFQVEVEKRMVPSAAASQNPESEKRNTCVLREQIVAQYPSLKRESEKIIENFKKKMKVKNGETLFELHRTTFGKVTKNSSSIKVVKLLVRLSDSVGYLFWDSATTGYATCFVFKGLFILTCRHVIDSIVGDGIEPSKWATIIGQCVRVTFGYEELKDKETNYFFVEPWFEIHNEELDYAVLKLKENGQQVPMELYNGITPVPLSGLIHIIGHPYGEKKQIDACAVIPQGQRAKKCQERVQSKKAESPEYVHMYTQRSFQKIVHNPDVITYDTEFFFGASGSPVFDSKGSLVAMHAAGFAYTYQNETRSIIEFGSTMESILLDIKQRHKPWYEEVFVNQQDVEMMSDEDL
UniProt Q96NB1: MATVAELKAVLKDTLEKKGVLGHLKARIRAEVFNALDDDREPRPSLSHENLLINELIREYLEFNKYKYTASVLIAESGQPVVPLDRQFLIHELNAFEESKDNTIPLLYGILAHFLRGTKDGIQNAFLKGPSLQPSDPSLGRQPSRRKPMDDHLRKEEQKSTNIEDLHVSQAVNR
UniProt Q96S44: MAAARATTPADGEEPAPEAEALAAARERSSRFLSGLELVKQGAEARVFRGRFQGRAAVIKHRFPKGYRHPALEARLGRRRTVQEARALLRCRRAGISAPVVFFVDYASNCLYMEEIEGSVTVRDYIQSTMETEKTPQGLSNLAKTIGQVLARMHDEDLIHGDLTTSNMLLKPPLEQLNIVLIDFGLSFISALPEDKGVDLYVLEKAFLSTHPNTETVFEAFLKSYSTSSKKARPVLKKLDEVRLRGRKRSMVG

Compound: CCc1cnccc1C(=O)Nc1cc2c(cc1F)NC(=O)CC2
Assay: melting temperature shift (DMSO Tm minus MBE1-treated Tm) in cellular thermal proteome profiling; higher = less thermal stabilization by MBE1 (negative = stabilized by MBE1)
Conditions: A375

Target | melting temperature shift (MBE1 concentration: 100 nM) [°C] | melting temperature shift (MBE1 concentration: 1 uM) [°C]
VPS13A (UniProt Q96RL7) | -0.439 | 0.531
SLC35E1 (UniProt Q96K37) | 0.189 | 0.779
RBM15 (UniProt Q96T37) | -0.154 | -0.372
UniProt Q96G97 | 0.523 | 1.5
FUBP3 (UniProt Q96I24) | -0.318 | -0.65
GMPPA (UniProt Q96IJ6) | -0.443 | 0.402
UniProt Q96GD4 | 0.212 | 0.325
NSMCE2 (UniProt Q96MF7) | -0.953 | -0.684
CCDC97 (UniProt Q96F63) | -0.546 | -1.09
FNBP1 (UniProt Q96RU3) | -0.24 | -0.151
FAM210A (UniProt Q96ND0) | -1.01 | -0.435
ERBB2IP (UniProt Q96RT1) | 0.946 | 0.372
KTI12 (UniProt Q96EK9) | 0.0659 | 0.113
CNN2 (UniProt Q99439) | 0.287 | 0.501
WDR92 (UniProt Q96MX6) | 2.05 | 1.19
C17ORF59 (UniProt Q96GS4) | -1.14 | 0.299
UniProt Q96LI5 | -0.0977 | 0.0183
ANKRD27 (UniProt Q96NW4) | 0.132 | -1.55
COG8 (UniProt Q96MW5) | -0.259 | -0.0141
VPS35 (UniProt Q96QK1) | -0.642 | 0.55
RMDN3 (UniProt Q96TC7) | 0.702 | 0.415
UniProt Q96PZ2 | 0.55 | -0.195
CIC (UniProt Q96RK0) | -0.579 | -1.63
UniProt Q96NB1 | -2.32 | -3.43
TP53RK (UniProt Q96S44) | 0.154 | 0.14

Retrieved one by one from above:
Target | melting temperature shift (MBE1 concentration: 100 nM) [°C] | melting temperature shift (MBE1 concentration: 1 uM) [°C]
CIC (UniProt Q96RK0) | -0.579 | -1.63
CCDC97 (UniProt Q96F63) | -0.546 | -1.09
